Results are given in words; binding and its absence hold for the method and conditions named. For some assays here: In cells and extracts the contact can be indirect. Some results given as binding are weak or reduced against the parent protein; the word gives no strength.
Assays:
[1] = target: FLAG-KAP1 wild type (KRAB-associated protein 1), expressed in HEK-293T cells (human) (UniProt Q13263); test: pull-down
[2] = target: FLAG-KAP1 wild type (KRAB-associated protein 1), expressed in HEK-293T cells (human) (UniProt Q13263); test: co-IP
[3] = target: MYC-SMURF2 wild type (Smad Ubiquitin Regulatory Factor 2) (UniProt Q9HAU4); test: co-IP

Chains of the proteins cited; added tags and fusions are not shown.
UniProt Q13263, whole entry: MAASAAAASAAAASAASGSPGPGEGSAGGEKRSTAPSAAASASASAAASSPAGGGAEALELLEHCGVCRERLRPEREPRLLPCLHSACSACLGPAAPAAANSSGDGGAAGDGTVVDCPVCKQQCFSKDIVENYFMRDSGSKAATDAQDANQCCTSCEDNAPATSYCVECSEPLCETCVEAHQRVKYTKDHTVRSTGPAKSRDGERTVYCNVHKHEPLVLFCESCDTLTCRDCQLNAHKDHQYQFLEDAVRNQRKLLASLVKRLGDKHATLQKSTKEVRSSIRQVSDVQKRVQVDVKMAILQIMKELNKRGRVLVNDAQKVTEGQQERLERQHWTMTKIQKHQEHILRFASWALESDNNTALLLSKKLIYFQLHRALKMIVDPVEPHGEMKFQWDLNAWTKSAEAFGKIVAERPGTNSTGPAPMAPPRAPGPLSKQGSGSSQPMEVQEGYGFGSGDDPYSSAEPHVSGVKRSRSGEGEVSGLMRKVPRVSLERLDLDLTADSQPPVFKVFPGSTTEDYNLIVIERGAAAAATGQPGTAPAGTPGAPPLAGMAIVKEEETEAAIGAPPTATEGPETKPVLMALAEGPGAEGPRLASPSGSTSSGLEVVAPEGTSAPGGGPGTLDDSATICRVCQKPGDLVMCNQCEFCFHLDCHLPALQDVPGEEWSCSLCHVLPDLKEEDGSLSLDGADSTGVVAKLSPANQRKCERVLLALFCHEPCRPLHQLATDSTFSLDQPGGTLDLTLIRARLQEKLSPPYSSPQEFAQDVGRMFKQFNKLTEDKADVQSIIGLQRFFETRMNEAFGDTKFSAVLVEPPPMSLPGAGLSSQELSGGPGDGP
UniProt Q9HAU4, whole entry: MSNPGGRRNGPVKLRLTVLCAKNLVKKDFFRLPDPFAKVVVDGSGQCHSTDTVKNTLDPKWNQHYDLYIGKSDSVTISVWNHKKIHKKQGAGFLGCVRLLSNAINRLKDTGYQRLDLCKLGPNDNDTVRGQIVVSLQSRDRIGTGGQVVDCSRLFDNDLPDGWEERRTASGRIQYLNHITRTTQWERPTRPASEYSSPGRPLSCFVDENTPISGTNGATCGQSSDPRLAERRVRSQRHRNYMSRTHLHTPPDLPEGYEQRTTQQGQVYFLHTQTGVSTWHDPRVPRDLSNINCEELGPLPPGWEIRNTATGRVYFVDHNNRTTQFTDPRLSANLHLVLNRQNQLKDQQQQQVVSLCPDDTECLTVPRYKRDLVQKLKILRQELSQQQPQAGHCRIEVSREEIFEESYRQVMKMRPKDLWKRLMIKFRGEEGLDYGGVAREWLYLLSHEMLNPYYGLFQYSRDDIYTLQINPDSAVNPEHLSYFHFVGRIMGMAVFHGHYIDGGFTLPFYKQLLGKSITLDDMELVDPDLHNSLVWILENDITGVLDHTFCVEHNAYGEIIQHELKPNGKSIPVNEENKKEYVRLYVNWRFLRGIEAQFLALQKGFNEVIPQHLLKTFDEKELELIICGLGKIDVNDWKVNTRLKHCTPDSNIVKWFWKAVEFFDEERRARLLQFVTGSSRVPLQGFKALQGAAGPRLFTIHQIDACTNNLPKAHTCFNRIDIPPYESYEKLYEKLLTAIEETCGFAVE
UniProt Q93009, whole entry: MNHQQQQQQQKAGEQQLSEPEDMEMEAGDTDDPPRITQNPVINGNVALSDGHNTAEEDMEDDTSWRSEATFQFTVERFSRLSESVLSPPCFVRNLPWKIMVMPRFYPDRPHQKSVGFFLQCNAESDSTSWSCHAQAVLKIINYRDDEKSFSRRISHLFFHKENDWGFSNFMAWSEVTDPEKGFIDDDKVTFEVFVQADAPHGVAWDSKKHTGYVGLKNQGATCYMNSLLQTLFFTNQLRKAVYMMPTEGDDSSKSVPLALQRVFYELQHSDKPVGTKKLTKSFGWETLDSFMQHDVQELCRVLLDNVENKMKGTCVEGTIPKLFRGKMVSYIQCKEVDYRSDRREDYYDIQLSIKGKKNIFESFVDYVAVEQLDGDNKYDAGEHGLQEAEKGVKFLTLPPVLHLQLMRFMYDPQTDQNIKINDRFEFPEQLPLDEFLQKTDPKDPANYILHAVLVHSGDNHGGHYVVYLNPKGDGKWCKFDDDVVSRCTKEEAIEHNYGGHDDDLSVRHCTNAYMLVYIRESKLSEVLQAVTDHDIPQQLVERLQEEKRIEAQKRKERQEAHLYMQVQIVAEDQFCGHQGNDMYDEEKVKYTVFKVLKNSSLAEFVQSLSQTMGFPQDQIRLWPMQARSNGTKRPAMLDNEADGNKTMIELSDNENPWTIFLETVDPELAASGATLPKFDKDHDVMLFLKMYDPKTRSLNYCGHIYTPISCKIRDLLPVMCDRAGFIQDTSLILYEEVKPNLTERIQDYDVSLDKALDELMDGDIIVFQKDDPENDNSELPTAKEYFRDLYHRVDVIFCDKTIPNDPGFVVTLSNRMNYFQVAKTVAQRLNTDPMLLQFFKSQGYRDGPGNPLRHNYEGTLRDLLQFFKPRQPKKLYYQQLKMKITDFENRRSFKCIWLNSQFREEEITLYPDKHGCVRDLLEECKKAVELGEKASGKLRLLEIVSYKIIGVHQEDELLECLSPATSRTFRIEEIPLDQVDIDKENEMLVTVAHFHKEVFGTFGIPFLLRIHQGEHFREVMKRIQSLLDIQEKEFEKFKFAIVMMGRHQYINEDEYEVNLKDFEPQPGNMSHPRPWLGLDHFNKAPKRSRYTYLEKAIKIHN

binding [1] | binding [2] | binding [3] | Substance
binds | – | – | His6-USP7, purified (from UniProt Q93009 1-1102) (enzyme)
– | binds | – | MYC-SMURF2 wild type (Smad Ubiquitin Regulatory Factor 2) (from UniProt Q9HAU4 1-748) (enzyme)
– | binds | – | V5-tagged USP7 (V5-USP7) (from UniProt Q93009 1-1102) (enzyme)
– | binds | binds | endogenous USP7 (HAUSP) of HEK-293T cells (from UniProt Q93009 1-1102) (enzyme)

— paper doi:10.1101/2025.08.12.669848
